# Patent publication EP0117034 (dated 1984)
# Experiment: Boc solid-phase peptide synthesis; MBHA resin; carbodiimides, such as N,N'-diisopropyl carbodiimide
# Details: whole synthesis, TLC and HPLC
substance,measurement,value
[IIe^27]-hpGRF(1―40)-NH2,final HPLC purity,greater than 98%
